The values below come from patent US20240392024A1.

These are yes or no findings as the source states them, for the method shown. Binding calls can cover weak binding; strength is not graded here.

The target in one assay is mCRD1. Nature of the assay: ELISA, plate coated with TNFR2-mCRD1.
The target of the next assay is mCRD2. Description: ELISA, plate coated with TNFR2-mCRD2.
The target in the next assay is mCRD3. Description: ELISA, plate coated with TNFR2-mCRD3.
Another assay concerns the target mCRD4. Description: ELISA, plate coated with TNFR2-mCRD4.

B1: anti-human TNFR2 mouse monoclonal antibody 27F6 (antibody, V domains shown)
VH: EVQLQQSGTVLARPGASVKMSCKTSGYTFTSYWMHWVKQRPGQGLEWIGTIYPGNSDTSYNQKFKGKAKLTAVTSASTAYMELNSLTNEDSAVFYCTRENLLLRSYFFDYWGQGTTLTVSS
VL: DIVMTQSPASLAVSLGQRATISCKASQSVDYDGDSYLNWYQQKPGQPPKLLIYAASNLPSGIPARFSGSGSGTDFTLNIHPVEEEDAATYYCQQSNEDPRTFGGGTKLEIK
Take B1: the binding entry with mCRD1 is “binds”; with mCRD2, “binds”; with mCRD3, “no binding”; with mCRD4, “binds”.

B2: anti-human TNFR2 mouse monoclonal antibody 12E12 (antibody, V domains shown)
VH: EVQLQQSGAELVKPGASVKLSCTVSGFNIKDFYIHWVKQRPEQGLEWIGRVDPEDGNTEYAPNFQDRATMTTDTSSNTAYLQLSSLTSVDTAVYYCSTWDGFSYFDYWGLGTTLTVSS
VL: QAVVTQESALTTSPGETVTLTCRSSTGPVTTNNYANWVQEKPDHLFTGLIGGTNDRAPGVPARFSGSLIGDKTALTITGTQTEDEAVYFCALWYRNHWVFGGGTKLTVL
Regarding B2, the binding result with mCRD1 is reported as “binds”; with mCRD2 it was “binds”; with mCRD3, “no binding”; with mCRD4 it was “binds”.

B3: anti-human TNFR2 mouse monoclonal antibody 33C12 (antibody, V domains shown)
VH: DVKLVESGGGLVKPGGSLKLSCAASGFTFSDYTMSWVRQTPEKRLEWVATISTGGSYTYYPDSVKGRFTISRDNAKNTLYLQMSSLKSEDTAMYYCTRDGGYDGDYFDYWGQGTTLTVSS
VL: ENVLTQSPAIMSASPGEKVTMTCRASSSVSSSYLHWYQQKSGASPKLWIYRTSNLASGVPARFSGSGSGTSYSLTISSVEAEDAATYYCQQYSGYPLTFGAGTRLELK
For B3, the binding result in the assay with mCRD1 is reported as “binds”; with mCRD2 it was “no binding”; in the assay with mCRD3, “binds”; in the assay with mCRD4, “binds”.

B4: anti-human TNFR2 mouse monoclonal antibody 7F2 (antibody, V domains shown)
VH: QVTLKESGPGILQPSQTLSLTCSFSGFSLNTFGLGVGWIRQPSGKGLEWLTHIWWNDDKYYNPALKSRLTISRDTSENLVFLKIANVDTADTATYYCARIEGLRRFDYWGQGTTLTVSS
VL: DIQMTQSPSSLSASLGGKVTITCKTSQDINKFIAWYQHKPGKGPRLLIHYTSTLQPGIPSRFSGSGSGRDYSFSISDLEPEDIATYYCLQYANLWAFGGGTKLEIK
With B4, the binding entry with mCRD1 is recorded as “no binding”; in the assay with mCRD2, “no binding”; in the assay with mCRD3 it was “binds”; with mCRD4, “binds”.
